PubChem BioAssay AID652248 | Drosophila RNAi Screening Center – 2013

- Test: 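Kinases and phosphatases whose loss pushes fly blood cells toward elongated shapes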 (primary screen)
- Cell system: cultured Drosophila hemocytes
- Reagents: long dsRNA against Drosophila genes
- Detection: 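Automated microscopy of stained actin, tubulin and nuclei; single-cell shape measures assigned to five reference shape types, giving a score per dsRNA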
- Scale: elongated score: higher = more elongated bipolar cells
- Rule for the call: 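a gene counts as active when its knock-down clearly increases the elongated score; a low similarity score was then used to rank the actives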
Here is one part, drawn at random, of 863 reagents tested. 32 of them (3.7%) were called active. 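Calls also used reproducibility and a similarity ranking whose scores are not deposited; many active genes show only modest elongated scores.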 A number with no mark means an inactive call. A plus sign joins genes that one reagent is predicted to hit. Further read-outs or replicates are left out here. Not given: the amount of reagent, the time to read-out.

With PyK [DRSC16806], what does the deposit list?
elongated score, rep 1: -0.34

What did the screen give for PyK [DRSC27033]?
elongated score, rep 1: 0.05

For Tsen54 [DRSC10527], what was measured?
elongated score, rep 1: -0.53

With Tsen54 [DRSC27583], what was measured?
elongated score, rep 1: -0.17

With TbCMF46 [DRSC02221], what does the deposit list?
elongated score, rep 1: -0.53

With Cerk [DRSC12285], what was measured?
elongated score, rep 1: -0.03

Which result is listed for Cdk7 [DRSC18451]?
elongated score, rep 1: -0.41

How did the screen score Cdk7 [DRSC23327]?
elongated score, rep 1: 0.17

What is on record for Atg1 [DRSC09809]?
elongated score, rep 1: 0.04; elongated score, rep 2: -0.34

What is on record for Atg1 [DRSC09810]?
elongated score, rep 1: -0.53; elongated score, rep 2: -0.53

What is on record for Takl2 [DRSC15650]?
elongated score, rep 1: -0.53

How did the screen score hpo [DRSC06065]?
elongated score, rep 1: -0.53

What did the screen give for CG3494 [DRSC04375]?
elongated score, rep 1: 1.29

For CG9452 [DRSC11075], what was measured?
elongated score, rep 1: 8.29

What did the screen give for CG9452 [DRSC23344]?
elongated score, rep 1: 1.86

How did the screen score Tie [DRSC08104]?
elongated score, rep 1: -0.53

With Tie [DRSC08702], how do the results read?
elongated score, rep 1: -0.53

For Pvf1 [DRSC20024], what was measured?
elongated score, rep 1: 0.63

What is on record for csw [DRSC18756]?
elongated score, rep 1: 0.97

What did the screen give for csw [DRSC23326]?
elongated score, rep 1: 1.21

With mod(mdg4) + pre-mod(mdg4)-U [DRSC13476], what was measured?
elongated score, rep 1: -0.09

For mod(mdg4) + pre-mod(mdg4)-T + pre-mod(mdg4)-Z [DRSC13477], what was measured?
elongated score, rep 1: -0.53

What is on record for mod(mdg4) + pre-mod(mdg4)-T + pre-mod(mdg4)-Z [DRSC17001]?
elongated score, rep 1: -0.53

With CG10177 [DRSC14201], what does the deposit list?
elongated score, rep 1: -0.42

For CG10177 [DRSC27888], what does the deposit list?
elongated score, rep 1: 0.56

With wrd [DRSC16344], how do the results read?
elongated score, rep 1: -0.53

What is on record for wrd [DRSC23189]?
elongated score, rep 1: -0.18

With wrd [DRSC25929], what does the deposit list?
elongated score, rep 1: 1.14

For Snrk [DRSC07192], how do the results read?
elongated score, rep 1: 0.28

How did the screen score Snrk [DRSC23332]?
elongated score, rep 1: 1.76

With CG4041 [DRSC18339], how do the results read?
elongated score, rep 1: -0.53

What did the screen give for CG4041 [DRSC26992]?
elongated score, rep 1: 0

Which result is listed for CG4629 [DRSC00659]?
elongated score, rep 1: 0.31

Which result is listed for CG4629 [DRSC27952]?
elongated score, rep 1: 0.24

Which result is listed for puc [DRSC17034]?
elongated score, rep 1: -0.53

What did the screen give for puc [DRSC26308]?
elongated score, rep 1: 0.36

With Ddr [DRSC02150], what does the deposit list?
elongated score, rep 1: -0.53

What is on record for Ddr [DRSC03229]?
elongated score, rep 1: 3.07; elongated score, rep 2: -0.53

How did the screen score Ddr [DRSC03230]?
elongated score, rep 1: -0.43

How did the screen score Ddr [DRSC22818]?
elongated score, rep 1: 0.42

For IP3K1 [DRSC02734], what was measured?
elongated score, rep 1: 0.01

With Ack [DRSC08135], how do the results read?
elongated score, rep 1: -0.53

How did the screen score Ack [DRSC28013]?
elongated score, rep 1: -0.53

What did the screen give for FER [DRSC12735]?
elongated score, rep 1: -0.36

With FER [DRSC16673], what was measured?
elongated score, rep 1: -0.53

What is on record for FER [DRSC29894]?
elongated score, rep 1: 3.21

In a second layout: 3 of the entries above
Gene	DRSC id	elongated score, rep 1	elongated score, rep 2
Atg1	DRSC09809	0.04	-0.34
Atg1	DRSC09810	-0.53	-0.53
Takl2	DRSC15650	-0.53	
